Test results: publication PMC3675359, “GxcC connects Rap and Rac signaling during Dictyostelium development” (BMC Cell Biology, 2013)
These are yes or no findings as the source states them, for the method shown. In cells and extracts the contact can be indirect. Binding can be weak; no strength is given. Where a sequence is shown, tags or fusion partners need not be part of it.

The chains behind the UniProt entries cited, without tags or fusion partners. Where a name states a change or a piece, a line headed by the entry shows the natural chain unless it says otherwise.
UniProt P18613: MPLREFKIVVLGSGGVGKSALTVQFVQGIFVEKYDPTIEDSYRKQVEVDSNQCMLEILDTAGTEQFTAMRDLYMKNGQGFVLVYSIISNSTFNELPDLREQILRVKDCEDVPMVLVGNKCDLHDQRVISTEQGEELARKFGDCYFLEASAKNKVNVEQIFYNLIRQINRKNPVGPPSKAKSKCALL

What was measured:
[1] = biological target: T1, GST-GxcC (Dictyostelium discoideum) (UniProt Q54P24); test: pull-down; GST-tagged GxcC constructs (bait) and GFP-RapA^CA (prey) co-expressed in Dictyostelium; lysate in LB buffer (1% Triton X-100, 150 mM NaCl, 10 mM MgCl2, pH 7.2) with GSH beads overnight at 4°C; anti-GFP western blot
T1 sequence: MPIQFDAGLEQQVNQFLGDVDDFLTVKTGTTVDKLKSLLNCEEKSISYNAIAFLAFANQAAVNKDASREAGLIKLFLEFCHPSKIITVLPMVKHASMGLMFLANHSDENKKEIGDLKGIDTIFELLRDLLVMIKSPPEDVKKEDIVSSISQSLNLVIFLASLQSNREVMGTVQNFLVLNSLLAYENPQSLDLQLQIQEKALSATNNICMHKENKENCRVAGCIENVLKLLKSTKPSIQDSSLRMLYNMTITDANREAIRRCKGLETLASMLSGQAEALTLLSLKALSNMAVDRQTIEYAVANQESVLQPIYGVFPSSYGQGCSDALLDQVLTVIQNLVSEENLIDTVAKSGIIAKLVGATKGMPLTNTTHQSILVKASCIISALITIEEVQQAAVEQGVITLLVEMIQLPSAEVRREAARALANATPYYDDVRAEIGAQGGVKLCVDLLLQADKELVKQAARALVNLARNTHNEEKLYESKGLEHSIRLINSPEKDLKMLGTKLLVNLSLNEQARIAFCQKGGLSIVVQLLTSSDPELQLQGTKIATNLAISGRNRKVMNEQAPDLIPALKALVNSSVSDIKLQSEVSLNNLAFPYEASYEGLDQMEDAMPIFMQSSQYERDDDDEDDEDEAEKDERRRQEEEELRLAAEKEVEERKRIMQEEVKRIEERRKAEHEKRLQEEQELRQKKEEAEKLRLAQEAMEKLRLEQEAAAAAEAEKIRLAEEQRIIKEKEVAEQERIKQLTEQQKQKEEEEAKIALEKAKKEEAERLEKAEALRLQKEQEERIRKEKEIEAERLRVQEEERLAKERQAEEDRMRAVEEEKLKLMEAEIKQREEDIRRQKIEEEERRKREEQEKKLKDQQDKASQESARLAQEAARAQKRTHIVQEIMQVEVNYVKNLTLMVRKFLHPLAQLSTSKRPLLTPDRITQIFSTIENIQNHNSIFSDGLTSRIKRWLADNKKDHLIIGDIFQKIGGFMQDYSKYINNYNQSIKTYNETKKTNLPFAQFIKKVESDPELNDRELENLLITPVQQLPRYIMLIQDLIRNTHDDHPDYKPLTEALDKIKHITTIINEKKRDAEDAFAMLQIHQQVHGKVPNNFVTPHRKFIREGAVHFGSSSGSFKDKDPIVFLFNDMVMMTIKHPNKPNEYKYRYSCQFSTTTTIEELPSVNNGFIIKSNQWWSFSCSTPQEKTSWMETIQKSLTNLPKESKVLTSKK

[2] = biological target: T2, GST-ARM (N-terminal construct of GxcC, base pairs 1-1911), expressed in Dictyostelium (Dictyostelium discoideum) (UniProt Q54P24); test: as above
T2 sequence: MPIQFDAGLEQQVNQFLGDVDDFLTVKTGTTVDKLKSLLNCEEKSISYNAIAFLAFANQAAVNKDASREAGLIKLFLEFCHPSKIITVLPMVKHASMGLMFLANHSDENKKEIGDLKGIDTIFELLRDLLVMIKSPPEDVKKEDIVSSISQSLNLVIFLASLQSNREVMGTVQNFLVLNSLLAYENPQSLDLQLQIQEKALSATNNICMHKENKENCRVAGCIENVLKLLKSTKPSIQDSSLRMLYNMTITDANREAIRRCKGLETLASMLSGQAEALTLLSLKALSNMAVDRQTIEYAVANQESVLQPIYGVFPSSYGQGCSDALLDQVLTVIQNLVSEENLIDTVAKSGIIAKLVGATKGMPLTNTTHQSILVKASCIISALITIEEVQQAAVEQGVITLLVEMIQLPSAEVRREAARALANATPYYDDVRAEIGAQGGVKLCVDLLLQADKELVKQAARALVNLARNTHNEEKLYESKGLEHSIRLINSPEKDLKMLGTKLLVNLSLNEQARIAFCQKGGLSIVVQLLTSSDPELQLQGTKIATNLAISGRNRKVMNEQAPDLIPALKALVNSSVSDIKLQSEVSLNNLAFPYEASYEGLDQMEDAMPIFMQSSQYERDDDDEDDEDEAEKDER

[3] = biological target: GST-RacH (Dictyostelium discoideum); test: pull-down; purified GST-Rac proteins coupled to GSH beads, incubated with pre-cleared lysate of vegetative GFP-GxcC Dictyostelium cells in the presence of EDTA, 4°C for 1 hour; anti-GFP and anti-GST western blot; only the target purified
[4] = biological target: GST-RacI (Dictyostelium discoideum); test: as above
[5] = biological target: GST-RapA^CA (Dictyostelium discoideum) (UniProt P18613); test: pull-down; GST-RapA^CA, GST-RasC^CA, GST-RasG^CA or GST alone (bait) and GFP-ARM (prey) overexpressed in Dictyostelium; cells in PB or PB with 5 μM Latrunculin A for 10 minutes prior to lysis; GSH beads; anti-GFP western blot

Q: Which binding [1] does the source give for GFP-RapA^CA (from UniProt P18613) here?
A: binds

Q: And the binding [2]?
A: binds

B1: GFP-GxcC (protein, UniProt Q54P24 1-1215)
chain: MPIQFDAGLEQQVNQFLGDVDDFLTVKTGTTVDKLKSLLNCEEKSISYNAIAFLAFANQAAVNKDASREAGLIKLFLEFCHPSKIITVLPMVKHASMGLMFLANHSDENKKEIGDLKGIDTIFELLRDLLVMIKSPPEDVKKEDIVSSISQSLNLVIFLASLQSNREVMGTVQNFLVLNSLLAYENPQSLDLQLQIQEKALSATNNICMHKENKENCRVAGCIENVLKLLKSTKPSIQDSSLRMLYNMTITDANREAIRRCKGLETLASMLSGQAEALTLLSLKALSNMAVDRQTIEYAVANQESVLQPIYGVFPSSYGQGCSDALLDQVLTVIQNLVSEENLIDTVAKSGIIAKLVGATKGMPLTNTTHQSILVKASCIISALITIEEVQQAAVEQGVITLLVEMIQLPSAEVRREAARALANATPYYDDVRAEIGAQGGVKLCVDLLLQADKELVKQAARALVNLARNTHNEEKLYESKGLEHSIRLINSPEKDLKMLGTKLLVNLSLNEQARIAFCQKGGLSIVVQLLTSSDPELQLQGTKIATNLAISGRNRKVMNEQAPDLIPALKALVNSSVSDIKLQSEVSLNNLAFPYEASYEGLDQMEDAMPIFMQSSQYERDDDDEDDEDEAEKDERRRQEEEELRLAAEKEVEERKRIMQEEVKRIEERRKAEHEKRLQEEQELRQKKEEAEKLRLAQEAMEKLRLEQEAAAAAEAEKIRLAEEQRIIKEKEVAEQERIKQLTEQQKQKEEEEAKIALEKAKKEEAERLEKAEALRLQKEQEERIRKEKEIEAERLRVQEEERLAKERQAEEDRMRAVEEEKLKLMEAEIKQREEDIRRQKIEEEERRKREEQEKKLKDQQDKASQESARLAQEAARAQKRTHIVQEIMQVEVNYVKNLTLMVRKFLHPLAQLSTSKRPLLTPDRITQIFSTIENIQNHNSIFSDGLTSRIKRWLADNKKDHLIIGDIFQKIGGFMQDYSKYINNYNQSIKTYNETKKTNLPFAQFIKKVESDPELNDRELENLLITPVQQLPRYIMLIQDLIRNTHDDHPDYKPLTEALDKIKHITTIINEKKRDAEDAFAMLQIHQQVHGKVPNNFVTPHRKFIREGAVHFGSSSGSFKDKDPIVFLFNDMVMMTIKHPNKPNEYKYRYSCQFSTTTTIEELPSVNNGFIIKSNQWWSFSCSTPQEKTSWMETIQKSLTNLPKESKVLTSKK
Q: What does the source list for B1?
A: binding [3]: binds; binding [4]: binds

B2: GFP-ARM (N-terminal construct of GxcC, base pairs 1-1911) (domain or fragment, UniProt Q54P24 1-637)
chain: MPIQFDAGLEQQVNQFLGDVDDFLTVKTGTTVDKLKSLLNCEEKSISYNAIAFLAFANQAAVNKDASREAGLIKLFLEFCHPSKIITVLPMVKHASMGLMFLANHSDENKKEIGDLKGIDTIFELLRDLLVMIKSPPEDVKKEDIVSSISQSLNLVIFLASLQSNREVMGTVQNFLVLNSLLAYENPQSLDLQLQIQEKALSATNNICMHKENKENCRVAGCIENVLKLLKSTKPSIQDSSLRMLYNMTITDANREAIRRCKGLETLASMLSGQAEALTLLSLKALSNMAVDRQTIEYAVANQESVLQPIYGVFPSSYGQGCSDALLDQVLTVIQNLVSEENLIDTVAKSGIIAKLVGATKGMPLTNTTHQSILVKASCIISALITIEEVQQAAVEQGVITLLVEMIQLPSAEVRREAARALANATPYYDDVRAEIGAQGGVKLCVDLLLQADKELVKQAARALVNLARNTHNEEKLYESKGLEHSIRLINSPEKDLKMLGTKLLVNLSLNEQARIAFCQKGGLSIVVQLLTSSDPELQLQGTKIATNLAISGRNRKVMNEQAPDLIPALKALVNSSVSDIKLQSEVSLNNLAFPYEASYEGLDQMEDAMPIFMQSSQYERDDDDEDDEDEAEKDER
Q: Which binding [5] does the source give for B2 here?
A: binds
